{"source": "the supplement of paper PMC8633005", "assay_in_all_cases": "drug sensitivity score (DSS) (DSS (unitless, 0-50 scale)); higher = more sensitive (stronger viability inhibition); extreme values may be limits of the assay", "conditions_in_all_cases": "72 h; culture: 2D", "key": {"[1]": {"tested_on": "Bowes", "outline": "(§1)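 Patient-derived melanoma cultures (1000–1500 cells per well) and melanoma cell lines were grown in 2D in 384-well plates holding a 527-compound oncology library. Each compound was dissolved in DMSO or water and tested at five concentrations spanning a 10,000-fold range. After 72 h at 37 °C, viability was read by CellTiter-Glo luminescence. A drug sensitivity score, a modified area-under-curve measure, was derived from dose-response curves fitted in the in-house Breeze software.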"}, "[2]": {"tested_on": "FM-MEL-3", "outline": "as §1"}, "[3]": {"tested_on": "FM-MEL-6", "outline": "as §1"}, "[4]": {"tested_on": "SK-MEL-28", "outline": "as §1"}, "[5]": {"tested_on": "SK-MEL-2", "outline": "as §1"}, "[6]": {"tested_on": "WM165", "outline": "as §1"}, "[7]": {"tested_on": "WM852", "outline": "as §1"}}, "data": [{"molecule": "C[C@@H]1C[C@H](N)C[C@H](c2ccncc2NC(=O)c2ccc(F)c(-c3c(F)cccc3F)n2)C1", "note": "[PIM-447]", "values": [{"measurement": "drug sensitivity score", "setting": "[1]", "value": 0}, {"measurement": "drug sensitivity score", "setting": "[2]", "value": 1.9}, {"measurement": "drug sensitivity score", "setting": "[3]", "value": 4.6}, {"measurement": "drug sensitivity score", "setting": "[4]", "value": 2.7}, {"measurement": "drug sensitivity score", "setting": "[5]", "value": 0}, {"measurement": "drug sensitivity score", "setting": "[6]", "value": 4.1}, {"measurement": "drug sensitivity score", "setting": "[7]", "value": 5.6}]}]}
